Results taken from the supplement of paper PMC7666118.
Some of the results follow.

Chains of the proteins cited; added tags and fusions are not shown. Lines headed by an entry give the natural chain unless they say otherwise; changes in a name come on top.
UniProt Q96P53: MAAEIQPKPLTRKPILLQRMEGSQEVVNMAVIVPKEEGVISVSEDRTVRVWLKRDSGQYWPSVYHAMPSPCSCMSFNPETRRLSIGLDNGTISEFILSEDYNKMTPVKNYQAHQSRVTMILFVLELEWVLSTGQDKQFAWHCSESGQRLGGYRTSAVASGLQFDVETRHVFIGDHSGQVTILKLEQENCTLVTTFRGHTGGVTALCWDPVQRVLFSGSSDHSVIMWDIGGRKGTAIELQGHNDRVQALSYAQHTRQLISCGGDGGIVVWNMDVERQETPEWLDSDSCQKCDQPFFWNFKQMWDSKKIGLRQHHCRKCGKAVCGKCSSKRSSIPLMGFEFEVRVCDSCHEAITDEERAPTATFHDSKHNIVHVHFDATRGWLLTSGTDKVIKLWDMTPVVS
UniProt A8MPS7: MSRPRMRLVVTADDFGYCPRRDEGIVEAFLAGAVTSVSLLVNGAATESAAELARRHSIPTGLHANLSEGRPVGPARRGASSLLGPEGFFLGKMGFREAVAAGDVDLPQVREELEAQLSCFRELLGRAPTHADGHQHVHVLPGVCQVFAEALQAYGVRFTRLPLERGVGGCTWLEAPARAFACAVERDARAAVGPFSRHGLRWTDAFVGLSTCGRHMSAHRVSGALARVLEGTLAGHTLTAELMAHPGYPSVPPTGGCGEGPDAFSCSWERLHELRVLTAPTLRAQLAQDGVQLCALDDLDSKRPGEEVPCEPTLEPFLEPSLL
UniProt P23381: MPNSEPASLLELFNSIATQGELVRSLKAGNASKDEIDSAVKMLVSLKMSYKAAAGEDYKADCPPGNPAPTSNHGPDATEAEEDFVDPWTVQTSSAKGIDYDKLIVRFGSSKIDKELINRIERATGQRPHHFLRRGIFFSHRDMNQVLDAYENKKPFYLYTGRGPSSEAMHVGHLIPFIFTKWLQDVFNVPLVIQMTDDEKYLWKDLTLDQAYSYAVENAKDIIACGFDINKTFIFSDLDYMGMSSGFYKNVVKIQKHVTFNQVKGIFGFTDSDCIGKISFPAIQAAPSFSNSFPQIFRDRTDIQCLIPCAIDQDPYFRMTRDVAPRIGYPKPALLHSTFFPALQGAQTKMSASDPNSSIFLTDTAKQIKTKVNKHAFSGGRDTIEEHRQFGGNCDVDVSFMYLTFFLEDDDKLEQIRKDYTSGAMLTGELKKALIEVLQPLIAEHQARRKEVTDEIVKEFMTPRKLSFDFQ
UniProt Q4G0F5, whole entry: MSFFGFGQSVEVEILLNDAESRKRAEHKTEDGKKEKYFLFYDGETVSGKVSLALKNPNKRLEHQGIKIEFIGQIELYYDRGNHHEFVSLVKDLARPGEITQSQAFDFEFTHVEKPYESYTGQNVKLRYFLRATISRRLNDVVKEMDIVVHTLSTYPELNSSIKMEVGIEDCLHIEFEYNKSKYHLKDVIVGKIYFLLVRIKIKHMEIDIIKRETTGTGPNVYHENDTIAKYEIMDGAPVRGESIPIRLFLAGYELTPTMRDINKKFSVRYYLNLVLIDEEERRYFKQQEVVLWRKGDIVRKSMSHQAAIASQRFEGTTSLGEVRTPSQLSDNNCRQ
UniProt Q04917: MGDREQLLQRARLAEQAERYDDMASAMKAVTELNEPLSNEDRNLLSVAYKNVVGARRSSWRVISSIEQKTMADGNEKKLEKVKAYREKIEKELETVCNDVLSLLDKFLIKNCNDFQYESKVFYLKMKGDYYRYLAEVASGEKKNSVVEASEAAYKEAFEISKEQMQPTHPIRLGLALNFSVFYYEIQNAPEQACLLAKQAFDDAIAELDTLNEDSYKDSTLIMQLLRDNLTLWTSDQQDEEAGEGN
UniProt P31946: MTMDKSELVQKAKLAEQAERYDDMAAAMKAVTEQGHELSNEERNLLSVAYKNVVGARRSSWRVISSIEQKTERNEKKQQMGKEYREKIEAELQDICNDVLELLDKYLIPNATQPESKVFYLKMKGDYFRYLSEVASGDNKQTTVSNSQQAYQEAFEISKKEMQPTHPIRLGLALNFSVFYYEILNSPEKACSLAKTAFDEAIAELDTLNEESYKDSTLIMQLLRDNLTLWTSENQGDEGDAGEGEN
UniProt Q96MX6, whole entry: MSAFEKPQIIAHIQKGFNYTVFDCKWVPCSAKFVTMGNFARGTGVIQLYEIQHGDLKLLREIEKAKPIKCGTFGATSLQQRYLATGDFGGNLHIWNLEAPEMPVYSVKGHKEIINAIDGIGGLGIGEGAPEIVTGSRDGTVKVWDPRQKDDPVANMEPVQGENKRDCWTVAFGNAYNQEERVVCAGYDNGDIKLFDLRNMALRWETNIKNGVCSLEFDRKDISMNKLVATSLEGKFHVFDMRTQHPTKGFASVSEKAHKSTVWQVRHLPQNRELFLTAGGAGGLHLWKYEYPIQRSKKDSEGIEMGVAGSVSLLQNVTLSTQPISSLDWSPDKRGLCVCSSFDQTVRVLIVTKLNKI
UniProt Q9Y2I8: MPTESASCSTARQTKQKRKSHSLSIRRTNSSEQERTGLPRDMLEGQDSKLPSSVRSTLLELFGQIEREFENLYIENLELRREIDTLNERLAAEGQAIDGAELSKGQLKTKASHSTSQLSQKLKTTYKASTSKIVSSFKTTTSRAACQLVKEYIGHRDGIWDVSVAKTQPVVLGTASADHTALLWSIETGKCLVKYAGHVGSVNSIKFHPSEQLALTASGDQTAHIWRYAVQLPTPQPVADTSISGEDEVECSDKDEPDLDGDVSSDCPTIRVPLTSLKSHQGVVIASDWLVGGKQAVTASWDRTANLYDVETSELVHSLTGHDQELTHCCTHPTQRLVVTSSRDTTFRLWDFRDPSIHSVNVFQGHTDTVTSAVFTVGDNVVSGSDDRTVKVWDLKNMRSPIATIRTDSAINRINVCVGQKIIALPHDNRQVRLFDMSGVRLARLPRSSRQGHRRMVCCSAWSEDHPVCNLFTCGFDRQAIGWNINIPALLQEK
UniProt Q9C0J8: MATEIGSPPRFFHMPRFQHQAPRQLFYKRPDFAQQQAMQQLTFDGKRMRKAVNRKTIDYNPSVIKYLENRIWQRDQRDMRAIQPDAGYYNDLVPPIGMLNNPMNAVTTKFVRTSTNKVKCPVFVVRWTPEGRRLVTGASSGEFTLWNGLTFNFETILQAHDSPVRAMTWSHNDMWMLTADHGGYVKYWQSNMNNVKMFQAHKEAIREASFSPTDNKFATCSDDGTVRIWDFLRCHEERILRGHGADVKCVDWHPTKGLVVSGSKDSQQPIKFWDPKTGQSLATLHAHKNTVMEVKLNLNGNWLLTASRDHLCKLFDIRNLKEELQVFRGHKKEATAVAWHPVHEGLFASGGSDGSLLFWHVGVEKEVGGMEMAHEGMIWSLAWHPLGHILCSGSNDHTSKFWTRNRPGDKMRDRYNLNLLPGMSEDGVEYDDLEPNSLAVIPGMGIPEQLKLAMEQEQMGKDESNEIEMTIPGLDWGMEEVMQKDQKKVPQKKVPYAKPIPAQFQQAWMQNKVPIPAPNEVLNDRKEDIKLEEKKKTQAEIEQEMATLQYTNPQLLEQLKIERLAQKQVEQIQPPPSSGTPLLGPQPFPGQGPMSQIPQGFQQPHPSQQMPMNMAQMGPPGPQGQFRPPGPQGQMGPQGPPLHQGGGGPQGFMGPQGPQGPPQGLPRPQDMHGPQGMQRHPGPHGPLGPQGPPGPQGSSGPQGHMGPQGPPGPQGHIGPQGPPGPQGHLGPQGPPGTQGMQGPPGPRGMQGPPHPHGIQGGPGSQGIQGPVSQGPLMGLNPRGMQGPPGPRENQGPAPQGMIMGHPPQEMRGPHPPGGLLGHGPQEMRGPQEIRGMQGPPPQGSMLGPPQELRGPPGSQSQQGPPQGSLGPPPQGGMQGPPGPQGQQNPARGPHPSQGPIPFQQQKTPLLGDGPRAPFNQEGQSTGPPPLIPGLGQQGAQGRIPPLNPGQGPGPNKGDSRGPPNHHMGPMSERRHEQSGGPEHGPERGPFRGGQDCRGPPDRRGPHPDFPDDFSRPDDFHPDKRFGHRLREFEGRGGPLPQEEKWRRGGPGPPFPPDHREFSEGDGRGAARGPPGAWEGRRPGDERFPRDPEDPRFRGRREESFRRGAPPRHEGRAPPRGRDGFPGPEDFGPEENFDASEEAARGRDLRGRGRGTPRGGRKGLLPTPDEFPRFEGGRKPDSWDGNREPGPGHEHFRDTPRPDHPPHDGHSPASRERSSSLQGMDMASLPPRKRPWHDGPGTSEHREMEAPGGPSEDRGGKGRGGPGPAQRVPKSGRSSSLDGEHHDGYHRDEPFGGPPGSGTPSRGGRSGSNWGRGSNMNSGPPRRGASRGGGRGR
UniProt Q9H4A3: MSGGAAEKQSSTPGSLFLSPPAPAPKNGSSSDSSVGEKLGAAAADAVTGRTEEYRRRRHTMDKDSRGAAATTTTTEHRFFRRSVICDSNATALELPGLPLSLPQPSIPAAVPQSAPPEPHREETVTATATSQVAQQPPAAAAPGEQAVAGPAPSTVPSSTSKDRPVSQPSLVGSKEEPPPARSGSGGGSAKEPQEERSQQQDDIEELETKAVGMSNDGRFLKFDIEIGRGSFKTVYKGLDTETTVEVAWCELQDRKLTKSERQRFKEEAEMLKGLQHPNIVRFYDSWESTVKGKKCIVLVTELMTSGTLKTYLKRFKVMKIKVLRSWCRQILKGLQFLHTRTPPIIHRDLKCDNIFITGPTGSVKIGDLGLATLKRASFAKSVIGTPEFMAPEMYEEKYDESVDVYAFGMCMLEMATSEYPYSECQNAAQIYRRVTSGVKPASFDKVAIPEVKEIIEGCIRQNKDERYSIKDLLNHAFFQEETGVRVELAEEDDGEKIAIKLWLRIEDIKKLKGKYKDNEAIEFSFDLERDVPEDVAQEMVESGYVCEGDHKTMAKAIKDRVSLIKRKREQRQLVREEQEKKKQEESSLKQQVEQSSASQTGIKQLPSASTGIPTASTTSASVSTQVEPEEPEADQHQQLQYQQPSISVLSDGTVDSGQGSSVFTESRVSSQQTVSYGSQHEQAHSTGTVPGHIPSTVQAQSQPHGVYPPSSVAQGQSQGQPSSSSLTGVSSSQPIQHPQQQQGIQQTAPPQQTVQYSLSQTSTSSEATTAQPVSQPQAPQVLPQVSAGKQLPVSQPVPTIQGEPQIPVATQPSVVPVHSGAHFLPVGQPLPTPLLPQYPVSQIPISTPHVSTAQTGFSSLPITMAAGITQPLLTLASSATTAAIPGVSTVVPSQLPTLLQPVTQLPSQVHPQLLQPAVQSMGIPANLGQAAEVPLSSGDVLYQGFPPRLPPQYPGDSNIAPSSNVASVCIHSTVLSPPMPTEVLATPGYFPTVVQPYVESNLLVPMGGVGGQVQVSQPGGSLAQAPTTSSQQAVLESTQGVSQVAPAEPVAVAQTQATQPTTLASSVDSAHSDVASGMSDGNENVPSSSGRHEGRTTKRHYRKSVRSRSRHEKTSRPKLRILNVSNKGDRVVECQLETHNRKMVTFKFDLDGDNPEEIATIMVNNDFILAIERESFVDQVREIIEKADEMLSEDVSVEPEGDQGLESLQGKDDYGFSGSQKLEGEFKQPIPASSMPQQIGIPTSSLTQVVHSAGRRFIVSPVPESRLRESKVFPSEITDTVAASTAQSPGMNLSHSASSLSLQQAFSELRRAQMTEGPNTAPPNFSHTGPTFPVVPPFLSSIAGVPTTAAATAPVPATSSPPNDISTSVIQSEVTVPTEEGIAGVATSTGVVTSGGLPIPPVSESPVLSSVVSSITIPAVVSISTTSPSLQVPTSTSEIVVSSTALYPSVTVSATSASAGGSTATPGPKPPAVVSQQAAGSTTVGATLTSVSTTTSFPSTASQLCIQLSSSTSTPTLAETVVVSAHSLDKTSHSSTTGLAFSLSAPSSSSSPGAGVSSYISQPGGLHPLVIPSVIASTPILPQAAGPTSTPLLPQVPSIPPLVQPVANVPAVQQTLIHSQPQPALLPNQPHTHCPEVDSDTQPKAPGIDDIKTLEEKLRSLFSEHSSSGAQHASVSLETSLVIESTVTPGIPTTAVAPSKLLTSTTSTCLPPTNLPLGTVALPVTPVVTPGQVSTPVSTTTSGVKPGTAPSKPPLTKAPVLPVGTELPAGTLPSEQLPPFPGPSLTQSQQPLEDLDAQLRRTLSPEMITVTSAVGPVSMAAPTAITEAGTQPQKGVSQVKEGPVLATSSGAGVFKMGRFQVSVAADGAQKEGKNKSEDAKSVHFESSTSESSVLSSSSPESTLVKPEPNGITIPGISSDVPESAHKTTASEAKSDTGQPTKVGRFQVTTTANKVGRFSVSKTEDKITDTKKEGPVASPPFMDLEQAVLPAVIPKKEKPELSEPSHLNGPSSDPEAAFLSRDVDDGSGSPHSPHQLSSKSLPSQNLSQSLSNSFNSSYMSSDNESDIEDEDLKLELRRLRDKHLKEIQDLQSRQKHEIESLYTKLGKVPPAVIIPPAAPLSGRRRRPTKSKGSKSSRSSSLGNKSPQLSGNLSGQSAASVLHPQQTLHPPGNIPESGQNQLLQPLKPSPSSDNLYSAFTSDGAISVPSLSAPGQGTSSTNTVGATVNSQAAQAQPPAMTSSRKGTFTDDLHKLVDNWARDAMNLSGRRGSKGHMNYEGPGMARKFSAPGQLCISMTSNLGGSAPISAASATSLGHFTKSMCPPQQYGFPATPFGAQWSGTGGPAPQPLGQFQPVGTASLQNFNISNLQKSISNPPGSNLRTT

The targets below were run with COc1ccc(Cn2ccc3ccc(C(=O)NO)cc32)cc1 (assay: dose-dependent thermal stabilisation call (2D-TPP, DLPTP, 10% FDR) (binary (1 = stabilised)); higher = stabilised by the compound). Conditions: system: HL-60 intact cells; concentration range 0.04-10 µM.
WDFY2 (UniProt Q96P53) was tested, and the “dose-dependent thermal stabilisation call” value was inactive: 0.
For YDJC (UniProt A8MPS7), the “dose-dependent thermal stabilisation call” value was inactive: 0.
In the case of WARS (UniProt P23381), the “dose-dependent thermal stabilisation call” value is reported as inactive: 0.
In the case of VPS26B (UniProt Q4G0F5), the “dose-dependent thermal stabilisation call” value is reported as inactive: 0.
YWHAH (UniProt Q04917) was tested, and the “dose-dependent thermal stabilisation call” value was inactive: 0.
YWHAB (UniProt P31946) was tested, and the “dose-dependent thermal stabilisation call” value was inactive: 0.
With WDR92 (UniProt Q96MX6) the “dose-dependent thermal stabilisation call” value was inactive: 0.
With WDR37 (UniProt Q9Y2I8) the “dose-dependent thermal stabilisation call” value was inactive: 0.
For WDR33 (UniProt Q9C0J8), the “dose-dependent thermal stabilisation call” value was inactive: 0.
In the case of WNK1 (UniProt Q9H4A3), the “dose-dependent thermal stabilisation call” value is reported as inactive: 0.
